Screen size: about 330,000 compounds; about 1,000 (0.3%) were called active. Inconclusive means that the source gave no clear call. Such entries were picked first, then a sample of the others. Calls come from the whole dose curve; as a rule, active = well fitted inhibition curve with a large enough effect; inconclusive = small, poorly fitted or top-dose-only effect; inactive = no such curve, though single readings can be large or run the other way; tested in mouse RAW 264.7 cells. Potencies of inconclusive entries are doubtful fits and often do not repeat.
Experiment: qHTS for Inhibitors of Cell Surface uPA Generation; note: nearly all actives have a fitted effect of over 55% in size
Conditions: cell surface uPA generation assay; series mostly up to 38.3 µM
Summary of the method: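 Intracellular ATP by ATPlite luminescence serves as read-out: inhibited cell-surface uPA generation prevents LF translocation, preserving ATP. Murine RAW 264.7 macrophages were treated 24 h at 37 C with five-fold serial dilutions, up to 38.3 uM final.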
Potency is the fitted concentration of half-maximal effect.

| SMILES | Potency |
| --- | --- |
| CCc1cccc(C)c1NC(=S)NCC1CCN(c2ccc(OC)cc2)C1 (stereo unspecified) | inactive |
| CN(Cc1ccc(Cl)c(Cl)c1)C(=O)c1cccc(S(=O)(=O)N2CCN(Cc3ccccc3)CC2)c1 | inconclusive: 12.6 µM [inhibitor, single point] |
| Nc1nc(N)c2cc(Sc3ccc4ccccc4c3)ccc2n1 | active: 2 µM |
| CCOc1ccc(CCN2C(=S)N([C@@H](CC(C)C)CN3CCCC3CN3C(=S)NC[C@@H]3Cc3ccc(O)cc3)C[C@@H]2CC(C)C)cc1 (stereo partly specified) | inconclusive: 28.2 µM [inhibitor, single point] |
| O=C(Nc1cc(Cl)cc(Cl)c1)c1ccno1 | inactive |
| CCCOc1ccc(C(=O)Nc2nc(C)c(Cc3ccc4c(c3)OCO4)s2)cc1 | inconclusive: 1.58 µM [inhibitor, full curve, poor fit] |
| O=C(O)C1Nc2c(Cl)cc(Cl)c(Cl)c2C2C=CCC12 (stereo unspecified) | inactive |
| Cc1cc(SCC(=O)c2ccc(Cl)cc2)nc(=O)[nH]1 | inconclusive: 12.6 µM [inhibitor, partial curve, poor fit] |
| COc1ccccc1C(=O)Nc1nnc(-c2ccc3c(c2)CCCC3)o1 | inconclusive: 12.6 µM [inhibitor, single point] |
| COC(=O)/C=C/COc1ccccc1[N+](=O)[O-] | active: 11.2 µM |
| Cc1cccc2c1Sc1ccc(Cl)cc1CC2N1CCNCC1 (stereo unspecified) | inconclusive: 8.91 µM [inhibitor, partial curve, poor fit] |
| O=C(N/N=C/c1sc(N2CCCCC2)nc1-c1cccs1)c1cccnc1 | inconclusive: 12.6 µM [inhibitor, single point] |
| CC(C)N(C(=O)[C@H]1C[C@H](CC(=O)NCC23CC4CC(CC(C4)C2)C3)C(=O)N2CCc3c([nH]c4cc(CCC(=O)N(C)C)ccc34)[C@]12C)C(C)C | inconclusive: 28.2 µM [inhibitor, single point] |
| C/C(=N\NC(=O)c1cc(-c2ccncc2)nc2ccccc12)c1ccc(N2CCOCC2)cc1 | inconclusive: 28.2 µM [inhibitor, single point] |
| O=C(CCc1nc2ccccc2[nH]1)Nc1ccc2c(c1)OCCO2 | inactive |
| COc1ccc(Nc2nc(NCCO)nc(N3CCCC3)n2)cc1 | inactive |
| Cc1nc2ccccc2c2nc3ccccc3n12 | inconclusive: 7.08 µM [inhibitor, partial curve] |
| COc1ccc(C(=O)NCc2cc(C)nc3ccccc23)cc1 | active: 7.08 µM |
| CCN(C(=O)CSc1nc2n[nH]c(C)c2c(=N)n1-c1ccc(Cl)c(C)c1)c1cccc(C)c1 | inconclusive: 7.94 µM [inhibitor, partial curve, poor fit] |
| O=C(NCc1ccco1)C(=O)NCC1OCCCN1S(=O)(=O)c1ccc(F)cc1 (stereo unspecified) | inconclusive: 3.55 µM [inhibitor, full curve, poor fit] |
| Cc1ccc2c(CC(=O)NCCc3ccc(S(N)(=O)=O)cc3)coc2c1 | inactive |
| Cc1ccc(-c2cc(C(=O)N/N=C/c3ccoc3)c3ccccc3n2)cc1 | inconclusive: 10 µM [inhibitor, partial curve, poor fit] |
| CC(=O)Nc1sc2c(c1-c1nc3ccccc3s1)CN(C(C)C)CC2 | active: 2 µM |
| O=C(NCCC1=CCCCC1)c1ccc2c(=O)n3c(nc2c1)CCCCC3 | inconclusive: 28.2 µM [inhibitor, single point] |

| SMILES | Potency |
| --- | --- |
| CCc1nnc2c(N(C)S(=O)(=O)c3ccc(C)cc3)nc3ccccc3n12 | inactive |
| CC(C)c1ccc(Nc2nnc(SCC(=O)NCC3CCCO3)s2)cc1 (stereo unspecified) | inconclusive: 5.01 µM [inhibitor, partial curve, poor fit] |
| O=C(COc1ccc(F)cc1F)NNC(=O)Nc1cccc([N+](=O)[O-])c1 | inconclusive: 5.62 µM [inhibitor, partial curve, poor fit] |
| Cc1cccc(OCC(=O)Nc2ccc3c(c2)nc(CCN2CCN(c4ccccn4)CC2)n3C)c1 | inconclusive: 7.94 µM [inhibitor, single point] |
| Cc1nc(-c2ccccc2O)n(S(=O)(=O)N(C)C)n1 | inactive |
| O=C(CN1CCN(C2CCS(=O)(=O)C2)CC1)N1N=C(c2ccc(Cl)cc2)CC1c1ccco1 (stereo unspecified) | inconclusive: 4.47 µM [inhibitor, partial curve] |
| CN(C)c1ccc(C(=S)N2CCOCC2)cc1 | inactive |
| Fc1ccc(C2CC(c3ccco3)=Nc3ccccc3S2)cc1 (stereo unspecified) | inconclusive: 0.199 µM [inhibitor, partial curve, poor fit] |
| CCCCN(C(=O)COC(=O)CSc1ccc([N+](=O)[O-])cc1)c1c(N)n(CCC)c(=O)[nH]c1=O | inactive |
| CCn1c(SCC(=O)OC)nc2cc(S(=O)(=O)N3CCOCC3)ccc21 | inactive |
| COc1cc(OC)c2c(-c3ccccc3)cc(=O)oc2c1C(CCN1CCOCC1)c1ccc2c(c1)OCO2 (stereo unspecified) | inconclusive: 12.6 µM [inhibitor, partial curve, poor fit] |
| O=C1c2ccc3c4c(ccc(c24)C(=O)N1CCCCO)C(=O)N(CCCCO)C3=O | active: 2.51 µM |
| CCCCCc1ccc(CC(=O)N2CCOCC2)cc1 | inactive |
| Cc1ccc(C2=CC(=O)CC(C)(C)C2)cc1 | inconclusive: 11.2 µM [inhibitor, partial curve, poor fit] |
| COc1ccc(S(=O)(=O)N2CCCOC2CNC(=O)C(=O)NCc2ccco2)cc1C (stereo unspecified) | inconclusive: 28.2 µM [inhibitor, single point] |
| Cc1cc(C)c(/C=C2\C(=O)Nc3ccccc32)[nH]1 | inconclusive: 3.16 µM [inhibitor, partial curve, poor fit] |
| O=C(Nc1nnc(-c2ccccc2)o1)c1cc(-c2cccs2)nc2ccccc12 | inconclusive: 11.2 µM [inhibitor, single point] |
| Cc1ccc(SC2=C(Sc3ccc(C)cc3)C(=O)c3ccccc3C2=O)cc1 | inactive |
| CC(C)(C)c1ccc(C(=O)NC(=S)NCc2ccco2)cc1 | inactive |
| CCOC(=O)c1c(S(=O)(=O)NCc2ccco2)c(C)n(C)c1C | inactive |
| CCCOc1ccc(-c2cnc(N)s2)cc1 | inconclusive: 3.98 µM [inhibitor, partial curve] |
| Cc1ccc(S(=O)(=O)Nc2ccc3c(c2)CC(=O)N([C@H](C)CO)C[C@@H](C)[C@H](CN(C)S(=O)(=O)c2ccccc2)O3)cc1 | inactive |
| CCOc1ccc(NC(=O)c2ccc(N)cc2)cc1 | inconclusive: 12.6 µM [inhibitor, partial curve, poor fit] |
| Cc1ccc(C(O)(COC(=O)C(C)C)COC(=O)C(C)C)c(O)c1 | inconclusive: 7.08 µM [inhibitor, single point] |

As entered above.
Under Potency, CCCCN(C(=O)COC(=O)CSc1ccc([N+](=O)[O-])cc1)c1c(N)n(CCC)c(=O)[nH]c1=O is entered as inactive
Under Potency, CCc1nnc2c(N(C)S(=O)(=O)c3ccc(C)cc3)nc3ccccc3n12 is entered as inactive
Under Potency, CN(C)c1ccc(C(=S)N2CCOCC2)cc1 is entered as inactive
Under Potency, Cc1cc(C)c(/C=C2\C(=O)Nc3ccccc32)[nH]1 is entered as inconclusive: 3.16 µM [inhibitor, partial curve, poor fit]
Under Potency, CCCOc1ccc(C(=O)Nc2nc(C)c(Cc3ccc4c(c3)OCO4)s2)cc1 is entered as inconclusive: 1.58 µM [inhibitor, full curve, poor fit]
Under Potency, O=C(COc1ccc(F)cc1F)NNC(=O)Nc1cccc([N+](=O)[O-])c1 is entered as inconclusive: 5.62 µM [inhibitor, partial curve, poor fit]

Later entries.

| SMILES | Potency |
| --- | --- |
| CC(C)NC(=S)N/N=C/c1ccccc1[N+](=O)[O-] | inactive |
| Cc1ccc(S(=O)(=O)Nc2ccsc2C#N)cc1 | inactive |
| CCCCNc1c(-c2ccc(-c3cccc(Cl)c3)cc2)nc2ccccn12 | inconclusive: 28.2 µM [inhibitor, single point] |
| CN(C)c1ccc(C(=O)c2ccccc2)cc1 | inactive |
| Cc1occc1-c1nnc(SCC(=O)Nc2nccs2)n1CCc1ccccc1 | inactive |
| CCCOc1ccc(NC(=O)CC2C(=O)N(Cc3ccccc3)C(=S)N2Cc2cccs2)cc1 (stereo unspecified) | inconclusive: 31.6 µM [inhibitor, single point] |
| COc1ccc(C2=Nn3c(nnc3-c3ccccc3Cl)SC2)cc1OC1CCOC1 (stereo unspecified) | inconclusive: 4.47 µM [inhibitor, partial curve, poor fit] |
| CCOc1ccc2oc(C(=O)Nc3nccs3)c(C)c2c1 | inconclusive: 3.16 µM [inhibitor, partial curve, poor fit] |
| O=C(COC(=O)c1cc(Br)c(Br)s1)NCCC1=CCCCC1 | inactive |
| COc1ccc(-c2nnn(CC(=O)N(CC3CCCO3)C(C(=O)NC(C)(C)C)c3ccco3)n2)cc1OC (stereo unspecified) | inactive |
| N#C/C(=C\c1ccc(C(=O)O)cc1)c1ccccn1 | inactive |
| C=C(C)CSc1nc2c(c(=O)[nH]c(=O)n2C)n1Cc1ccccc1 | inconclusive: 28.2 µM [inhibitor, single point] |
| NC(=O)c1sc(=S)n(-c2ccc(Br)cc2)c1N | inactive |
| O=C(Nc1nc2ccccc2s1)C1CCN(S(=O)(=O)c2cc([N+](=O)[O-])ccc2Cl)CC1 | inconclusive: 7.94 µM [inhibitor, partial curve] |
| CCN(CC)CCCn1c2c(c(SCC(=O)Nc3nccs3)nc1=O)CCC2 | inactive |
| Cn1ccc(C(=O)Nc2ccc3c(c2)OCCO3)n1 | inconclusive: 5.01 µM [inhibitor, partial curve, poor fit] |
| Cc1nnc(SCc2nnc(-c3cccs3)o2)n1Cc1ccccc1 | inactive |
| Cc1cc(NS(=O)(=O)c2c(C)c(C)cc(C)c2C)no1 | inconclusive: 1.26 µM [inhibitor, partial curve, poor fit] |
| Cc1cccc(NC2=CC(=O)CC(C)(C)C2)c1C | inconclusive: 10 µM [inhibitor, partial curve, poor fit] |
| COc1cc(O)c2c(=O)c3c(O)ccc(O)c3oc2c1 | inconclusive: 11.2 µM [inhibitor, single point] |
| Cc1cc2ccccc2n1CCNC(=O)c1ccc(S(=O)(=O)N2CCOCC2)cc1 | inactive |
| Cc1ccc(CNCc2cc3c(C(C)(C)C)nn(-c4ccccc4)c3[nH]c2=O)cc1 | inconclusive: 8.91 µM [inhibitor, partial curve, poor fit] |
| ON=C1/C(=N\O)CC2(C/C1=N/O)OCCO2 | inconclusive: 7.94 µM [inhibitor, single point] |
